No constants are given. Whether binding was seen depends on the method and setting. Some binding calls cover weakened binding; strength is not graded here.

Sequences of proteins named here, by UniProt entry; tags and fusion partners are left off. Residues count along the entry.
UniProt P25445, residues 26-335: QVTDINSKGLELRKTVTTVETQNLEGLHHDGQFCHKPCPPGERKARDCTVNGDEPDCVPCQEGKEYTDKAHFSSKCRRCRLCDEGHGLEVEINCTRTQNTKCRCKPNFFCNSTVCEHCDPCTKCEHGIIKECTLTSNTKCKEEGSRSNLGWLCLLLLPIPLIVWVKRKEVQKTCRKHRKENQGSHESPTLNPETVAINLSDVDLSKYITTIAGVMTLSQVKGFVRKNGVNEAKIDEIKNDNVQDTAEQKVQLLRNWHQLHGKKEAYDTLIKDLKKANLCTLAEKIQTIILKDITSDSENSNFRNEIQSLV
UniProt P48023, residues 139-281: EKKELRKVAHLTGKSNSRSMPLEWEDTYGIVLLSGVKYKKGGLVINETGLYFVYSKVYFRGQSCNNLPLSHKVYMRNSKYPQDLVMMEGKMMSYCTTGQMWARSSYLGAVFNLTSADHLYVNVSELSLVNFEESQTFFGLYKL
UniProt Q13546, residues 325-671: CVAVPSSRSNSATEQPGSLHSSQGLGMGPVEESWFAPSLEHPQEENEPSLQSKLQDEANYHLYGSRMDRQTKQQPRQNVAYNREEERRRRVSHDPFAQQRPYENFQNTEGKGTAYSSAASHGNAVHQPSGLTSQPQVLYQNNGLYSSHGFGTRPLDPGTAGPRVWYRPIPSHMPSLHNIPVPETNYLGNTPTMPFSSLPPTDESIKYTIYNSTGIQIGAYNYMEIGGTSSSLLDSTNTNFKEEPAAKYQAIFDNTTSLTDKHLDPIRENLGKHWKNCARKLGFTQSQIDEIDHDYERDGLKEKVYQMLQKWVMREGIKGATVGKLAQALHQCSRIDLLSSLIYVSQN

Assay [1] deals with CD95 (human) (UniProt P25445). Briefly: ligand affinity precipitation from MET1 and A5-RT3 cells, Western blot for CD95.
Assay [2] addresses CD95 (human) (UniProt P25445). The assay is described as follows: ligand affinity precipitation from HaCaT cells, Western blot for CD95.
For assay [3], the target named is CD95 (human) (UniProt P25445). The assay is described as follows: CD95L-Fc ligand affinity precipitation of the DISC, Western blot (data not shown).

“CD95L-Fc (from UniProt P48023 139-281) (Fc fusion)”: the binding result with CD95 (human) [1] and with CD95 (human) [2] was “binds” each time.

With “DD-containing fragment of RIP1 (from UniProt Q13546 325-671)”, the binding result with CD95 (human) [3] is “binds”.

The values above are taken from patent publication US20120015352A1, “METHOD OF DETERMINING SENSITIVITY OF HUMAN OR NON-HUMAN ANIMAL CELLS TO AN IAP ANTAGONIST” (Otto-von-Guericke-Universitat Magdeburg, priority 2009, published 2012).
